Assay results taken from patent US12661308B2, “Antimicrobial AZO compounds and uses thereof” (The Regents Of The University Of Colorado, A Body Corporate, priority 2019, dated 2026).
Some entries share one result that the patent states for a list of compounds. Some compounds share one range, which may span the group rather than tell each member.

System: S. mutans (ATCC 25175) biofilm
Test: S. mutans biofilm growth study by CFU count on coated and bulk substrates (Example 4)
Type: cell-based, Streptococcus mutans
Details: 50 mg/mL coating solution, 24 h
Method: Coating formulations of OH-AAZO were prepared in THF, all others were prepared in DMF. The THF volume was kept constant (1 mL) and the mass of OH-AAZO monomer was varied to attain the desired concentration. In addition to the OH-AAZO monomer, the coating also consisted of AIBN (2 wt. % relative to the mass of the monomer), and Rhodamine B (0.2 wt. % relative to the mass of the monomer).
Once cured, the MMA:TEGDMA:PMMA base polymers were placed into a mount on a square glass microscope slide. 3 μL of the coating formulation was added via pipette to one side of the substrate and spin coated (1000 rpm for 1 min, 6000 rpm for 3 min), then the process was repeated on the other side. […]
Following curing, residual monomer was aqueously extracted by autoclaving (20 psi, 128° C.) for 1 h in MilliQ water (approx. 5 mL water per substrate). […] The substrates were blotted dry and analyzed via UV-Vis spectroscopy to confirm the relative amount of the coating (FIG. 9). […]
Following biofilm growth in the 96-well plate, the substrates were aseptically removed from the 96-well plate and placed in a vial containing 5 mL of 1× PBS solution. […] The CFUs on each plate were counted in order to quantify the amount of biofilm remaining on the surface of the substrate and the bacteria remaining in the media after the removal of the substrate using the following equations: […]

Structure (SMILES) | CFUs of S. mutans biofilm on substrate surface
C=C(C)C(=O)OCCO [HEMA, 2-hydroxylethyl methacrylate, reference compound] | 10^7-10^8 CFUs
C=CC(=O)OCc1ccc(O)cc1 [HBA, 4-hydroxybenzyl acrylate, reference compound] | 10^7-10^8 CFUs
